These are yes or no findings as the source states them, for the method shown. Binding calls can cover weak binding; strength is not graded here. For some of these results: In cells and extracts the contact can be indirect.
Experiments:
[1] = biological target: CrsL–FLAG (FLAG-tagged CrsL under an ATc inducible promoter) (M. smegmatis) (UniProt A0R4M8); test: co-IP; FLAG pull-down: M. smegmatis lysates (2–4 mg protein; exponential and stationary phase; for RNAP-FLAG also after crsL knock-down) with M2 anti-FLAG resin 16–18 h at 4°C in 20 mM Tris–HCl pH 7.9, 150 mM KCl, 1 mM MgCl2; SDS–PAGE, silver stain, bands identified by MALDI-FTICR MS and/or western blot
[2] = biological target: CrsL–His (in vitro purified CrsL) (M. smegmatis) (UniProt A0R4M8); test: NMR titration; 2D 1H–15N HSQC of [15N]-CrsL with 0–400 μM unlabeled CarD, and spectra of [13C,15N]-CarD with unlabeled CrsL; high-salt NMR buffer (20 mM sodium phosphate pH 7, 0.5 mM TCEP, 300 mM NaCl), 27°C; both purified
[3] = biological target: CrsL–His (in vitro purified CrsL) (M. smegmatis) (UniProt A0R4M8); test: far-Western, overlay or dot blot; BSA, CarD–NT and CrsL–His resolved by SDS–PAGE, blotted on nitrocellulose, denatured and renatured with guanidine–HCl; membrane incubated overnight with purified CarD (20 μg in 10 ml), detected with anti-CarD antibody; both purified
[4] = biological target: CarD–NT (in vitro purified CarD) (M. smegmatis) (UniProt A0R561); test: NMR titration; 2D 1H–15N HSQC of [15N]-CrsL with 0–400 μM unlabeled CarD, and spectra of [13C,15N]-CarD with unlabeled CrsL; high-salt NMR buffer (20 mM sodium phosphate pH 7, 0.5 mM TCEP, 300 mM NaCl), 27°C; both purified
[5] = biological target: CarD–NT (in vitro purified CarD) (M. smegmatis) (UniProt A0R561); test: native gel or EMSA; purified CrsL, CarD and DnaK mixed in 1× STB buffer (50 mM Tris–HCl pH 8.0, 5 mM Mg acetate, 100 μM DTT, 50 mM KCl, 50 μg/ml BSA), 37°C 15 min; 8% native gel at 4°C; Coomassie stain, bands confirmed by mass spectrometry; both purified
[6] = biological target: CrsL–His (in vitro purified CrsL) (M. smegmatis) (UniProt A0R4M8); test: as above

Sequences of proteins named here, by UniProt entry; tags and fusion partners are left off. A change or cut given only in a name is not applied to a line headed by its entry.
UniProt A0R4M8: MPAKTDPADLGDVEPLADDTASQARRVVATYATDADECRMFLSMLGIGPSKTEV
UniProt A0R561: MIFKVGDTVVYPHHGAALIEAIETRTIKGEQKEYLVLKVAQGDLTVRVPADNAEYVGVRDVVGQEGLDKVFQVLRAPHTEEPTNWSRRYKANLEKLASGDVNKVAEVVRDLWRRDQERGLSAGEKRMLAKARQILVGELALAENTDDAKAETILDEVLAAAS
UniProt A0QQC8: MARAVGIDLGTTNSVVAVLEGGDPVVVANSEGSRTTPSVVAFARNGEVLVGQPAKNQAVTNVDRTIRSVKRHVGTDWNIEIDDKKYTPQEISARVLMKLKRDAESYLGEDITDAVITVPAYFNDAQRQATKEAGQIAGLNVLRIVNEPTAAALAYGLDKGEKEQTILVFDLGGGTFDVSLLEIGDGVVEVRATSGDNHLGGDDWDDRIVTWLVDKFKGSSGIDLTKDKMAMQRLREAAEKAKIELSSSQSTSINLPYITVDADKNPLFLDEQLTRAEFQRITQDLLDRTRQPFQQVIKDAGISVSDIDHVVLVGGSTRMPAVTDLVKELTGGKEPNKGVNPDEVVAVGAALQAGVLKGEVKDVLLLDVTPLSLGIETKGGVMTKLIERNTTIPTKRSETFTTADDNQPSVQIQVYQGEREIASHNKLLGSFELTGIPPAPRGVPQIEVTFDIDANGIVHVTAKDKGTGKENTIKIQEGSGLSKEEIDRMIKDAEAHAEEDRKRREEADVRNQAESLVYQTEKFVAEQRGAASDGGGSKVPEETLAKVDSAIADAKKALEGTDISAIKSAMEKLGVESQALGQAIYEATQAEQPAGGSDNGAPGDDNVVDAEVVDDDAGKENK

CarD (from UniProt A0R561 1-162) was tested, and the binding [1] was “binds”.
In the case of “CarD–NT (in vitro purified CarD) (from UniProt A0R561 1-162)”, the binding [2] was “binds” and the binding [3] was “binds”.
“CrsL–His (in vitro purified CrsL) (from UniProt A0R4M8)” was tested, and the binding [4] was “binds” and the binding [5] was “binds”.
“DnaK chaperon protein (MSMEG_0709) (from UniProt A0QQC8 1-622)” was tested, and the binding [1] was “binds”.
In the case of “DnaK-His (in vitro purified DnaK) (from UniProt A0QQC8 1-622)”, the binding [6] was “binds weakly”.

— paper PMC12709188
